Test system: diabetic patients
Test: HbA1c (glycated hemoglobin) of the patient under the prescription
Assay type: in vivo, human
Details: Case (18), person; as of April 27 (2020); loss of appetite and weight loss
Procedure: For each prescription example, the glycemic status of the patient that is dependent on the administered active components and the component amount is measured using HbA1c (glycated hemoglobin) along with changes in the lactic acid value, and opinion of the doctor is recorded together with the change in the values.

## CN(C)C(=N)NC(=N)N.Cl [metformin, metformin hydrochloride]
  HbA1c: 5.3

Reference: patent publication US11701336B2, “Method of determining composition effective for treating diabetes” (priority 2015, dated 2023)
